Laboratory results from the M2OR odorant receptor database.
Some of the results follow. Calls are pooled over several reports, among them a noisy single-well screen.

Tests used:
Details in all cases: stereoisomer not certain
O52I2 = tested on: T1, O52I2
T1 sequence (whole entry): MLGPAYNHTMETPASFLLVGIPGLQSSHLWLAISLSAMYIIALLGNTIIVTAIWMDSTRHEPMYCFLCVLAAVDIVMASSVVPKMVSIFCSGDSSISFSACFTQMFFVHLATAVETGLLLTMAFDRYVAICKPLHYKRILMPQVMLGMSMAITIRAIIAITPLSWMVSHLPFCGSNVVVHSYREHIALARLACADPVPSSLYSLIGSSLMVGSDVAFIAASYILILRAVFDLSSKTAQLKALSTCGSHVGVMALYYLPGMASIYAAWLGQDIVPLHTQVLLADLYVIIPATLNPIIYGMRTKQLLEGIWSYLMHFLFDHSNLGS
In short: (§1)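 Values were gathered from published papers (main text and supplementary material), with extra details requested from the original authors when needed, and checked for typos and inconsistencies. Each receptor–molecule pair is called responsive (active) if the original authors judged the measured signal statistically different from baseline, and non-responsive (inactive) otherwise. Assay methods varied by source, often transient mammalian cell-line luciferase assays. Recorded details include cell line, G-protein, co-transfected protein and tags.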

O52J3 = tested on: T2, O52J3
T2 sequence (whole entry): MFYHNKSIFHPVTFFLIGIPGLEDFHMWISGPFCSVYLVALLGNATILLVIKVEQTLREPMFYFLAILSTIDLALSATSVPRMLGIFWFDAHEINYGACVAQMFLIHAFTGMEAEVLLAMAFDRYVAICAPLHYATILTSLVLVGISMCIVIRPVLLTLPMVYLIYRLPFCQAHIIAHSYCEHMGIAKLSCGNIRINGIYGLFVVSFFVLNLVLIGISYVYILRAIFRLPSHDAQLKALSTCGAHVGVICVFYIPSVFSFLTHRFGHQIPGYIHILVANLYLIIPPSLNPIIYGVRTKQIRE
In short: as §1

O52L1 = tested on: T3, O52L1
T3 sequence (whole entry): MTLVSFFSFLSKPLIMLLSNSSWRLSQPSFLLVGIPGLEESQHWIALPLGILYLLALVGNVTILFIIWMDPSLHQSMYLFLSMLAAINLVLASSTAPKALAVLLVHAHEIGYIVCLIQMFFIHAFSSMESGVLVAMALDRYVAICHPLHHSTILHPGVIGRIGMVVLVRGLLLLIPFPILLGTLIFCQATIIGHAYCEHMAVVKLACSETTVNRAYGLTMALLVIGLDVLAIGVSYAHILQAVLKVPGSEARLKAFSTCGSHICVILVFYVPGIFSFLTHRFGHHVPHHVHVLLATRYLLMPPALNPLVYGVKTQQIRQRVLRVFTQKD
In short: as §1

O52L2 = tested on: T4, O52L2
T4 sequence (whole entry): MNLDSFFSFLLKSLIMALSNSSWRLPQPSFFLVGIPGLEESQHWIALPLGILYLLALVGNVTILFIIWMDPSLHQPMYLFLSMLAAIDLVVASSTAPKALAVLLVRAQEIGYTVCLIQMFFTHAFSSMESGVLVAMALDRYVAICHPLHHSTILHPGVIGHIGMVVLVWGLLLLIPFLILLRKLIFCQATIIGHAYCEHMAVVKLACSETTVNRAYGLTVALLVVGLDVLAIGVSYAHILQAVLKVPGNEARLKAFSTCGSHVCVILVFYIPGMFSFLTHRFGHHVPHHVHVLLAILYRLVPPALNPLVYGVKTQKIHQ
In short: as §1

O52M1 = tested on: T5, O52M1
T5 sequence (whole entry): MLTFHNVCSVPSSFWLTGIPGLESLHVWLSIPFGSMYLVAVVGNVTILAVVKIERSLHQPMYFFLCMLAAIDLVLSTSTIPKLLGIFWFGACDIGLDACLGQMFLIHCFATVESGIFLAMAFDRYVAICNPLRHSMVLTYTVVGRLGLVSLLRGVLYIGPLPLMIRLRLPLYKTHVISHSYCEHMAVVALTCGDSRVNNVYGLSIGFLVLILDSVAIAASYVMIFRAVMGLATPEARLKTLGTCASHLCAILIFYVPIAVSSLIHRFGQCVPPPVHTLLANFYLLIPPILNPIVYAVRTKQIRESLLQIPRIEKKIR
In short: as §1

O52N1 = tested on: T6, O52N1
T6 sequence (whole entry): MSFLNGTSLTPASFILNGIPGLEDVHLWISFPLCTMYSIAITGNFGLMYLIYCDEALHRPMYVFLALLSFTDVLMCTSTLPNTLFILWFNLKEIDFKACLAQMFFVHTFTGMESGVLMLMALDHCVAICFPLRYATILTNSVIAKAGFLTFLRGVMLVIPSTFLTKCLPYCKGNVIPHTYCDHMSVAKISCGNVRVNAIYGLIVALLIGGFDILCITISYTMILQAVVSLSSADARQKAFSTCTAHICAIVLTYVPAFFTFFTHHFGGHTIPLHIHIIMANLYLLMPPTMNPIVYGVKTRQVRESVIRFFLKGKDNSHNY
In short: as §1

O52N2 = tested on: T7, O52N2
T7 sequence (whole entry): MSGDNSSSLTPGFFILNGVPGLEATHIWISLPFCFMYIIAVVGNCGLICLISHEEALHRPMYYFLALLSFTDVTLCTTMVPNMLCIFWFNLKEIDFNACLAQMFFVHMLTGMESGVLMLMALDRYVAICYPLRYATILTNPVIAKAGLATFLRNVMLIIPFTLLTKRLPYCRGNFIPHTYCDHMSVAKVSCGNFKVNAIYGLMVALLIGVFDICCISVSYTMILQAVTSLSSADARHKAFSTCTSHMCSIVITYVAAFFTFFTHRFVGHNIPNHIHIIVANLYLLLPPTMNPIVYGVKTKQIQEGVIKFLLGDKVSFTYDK
In short: as §1

O52N4 = tested on: T8, O52N4
T8 sequence (whole entry): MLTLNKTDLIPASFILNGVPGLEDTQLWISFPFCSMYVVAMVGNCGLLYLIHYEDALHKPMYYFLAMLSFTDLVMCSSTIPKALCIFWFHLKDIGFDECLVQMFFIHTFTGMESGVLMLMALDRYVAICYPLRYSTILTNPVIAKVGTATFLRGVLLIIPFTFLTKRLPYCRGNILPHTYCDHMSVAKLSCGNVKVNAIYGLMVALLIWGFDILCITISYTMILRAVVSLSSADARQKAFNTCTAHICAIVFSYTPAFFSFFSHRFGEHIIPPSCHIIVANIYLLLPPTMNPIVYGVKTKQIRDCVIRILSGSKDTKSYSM
In short: as §1

O52P1 = tested on: T9, O52P1
T9 sequence (whole entry): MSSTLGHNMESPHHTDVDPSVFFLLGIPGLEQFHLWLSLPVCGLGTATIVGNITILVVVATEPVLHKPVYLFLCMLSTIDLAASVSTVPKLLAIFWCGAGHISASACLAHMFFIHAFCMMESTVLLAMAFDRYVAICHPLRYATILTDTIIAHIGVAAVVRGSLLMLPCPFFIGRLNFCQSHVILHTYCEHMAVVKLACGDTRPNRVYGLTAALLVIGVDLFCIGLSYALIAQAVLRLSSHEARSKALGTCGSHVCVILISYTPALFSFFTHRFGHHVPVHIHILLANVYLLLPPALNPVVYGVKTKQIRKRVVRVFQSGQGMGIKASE
In short: as §1

O52R1 = tested on: T10, O52R1
T10 sequence (whole entry): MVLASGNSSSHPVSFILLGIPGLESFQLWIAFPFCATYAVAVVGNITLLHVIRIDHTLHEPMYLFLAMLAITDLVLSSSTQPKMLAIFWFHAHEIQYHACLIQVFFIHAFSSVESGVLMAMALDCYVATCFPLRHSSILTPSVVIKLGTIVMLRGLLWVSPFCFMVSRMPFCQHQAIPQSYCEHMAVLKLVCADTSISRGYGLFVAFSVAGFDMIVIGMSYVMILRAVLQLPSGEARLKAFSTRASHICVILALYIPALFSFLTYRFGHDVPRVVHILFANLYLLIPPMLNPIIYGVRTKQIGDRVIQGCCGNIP
In short: as §1

O52W1 = tested on: T11, O52W1
T11 sequence (whole entry): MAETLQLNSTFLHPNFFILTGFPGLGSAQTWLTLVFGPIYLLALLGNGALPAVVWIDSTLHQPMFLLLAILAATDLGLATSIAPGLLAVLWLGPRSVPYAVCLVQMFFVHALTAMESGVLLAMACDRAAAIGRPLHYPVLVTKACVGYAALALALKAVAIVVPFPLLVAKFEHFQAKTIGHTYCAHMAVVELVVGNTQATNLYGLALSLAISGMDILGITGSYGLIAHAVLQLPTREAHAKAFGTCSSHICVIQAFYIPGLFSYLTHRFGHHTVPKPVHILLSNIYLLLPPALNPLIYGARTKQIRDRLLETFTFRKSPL
In short: as §1

O56A3 = tested on: T12, O56A3
T12 sequence (whole entry): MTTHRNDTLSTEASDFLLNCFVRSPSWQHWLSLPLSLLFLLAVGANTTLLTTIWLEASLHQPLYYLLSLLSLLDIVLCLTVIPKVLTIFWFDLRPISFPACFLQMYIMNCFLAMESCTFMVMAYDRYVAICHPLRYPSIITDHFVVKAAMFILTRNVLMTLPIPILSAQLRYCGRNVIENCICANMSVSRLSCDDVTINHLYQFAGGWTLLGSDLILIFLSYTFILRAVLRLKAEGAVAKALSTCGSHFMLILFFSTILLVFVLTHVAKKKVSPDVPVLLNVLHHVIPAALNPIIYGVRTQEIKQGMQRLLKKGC
In short: as §1

O56B1 = tested on: T13, O56B1
T13 sequence (whole entry): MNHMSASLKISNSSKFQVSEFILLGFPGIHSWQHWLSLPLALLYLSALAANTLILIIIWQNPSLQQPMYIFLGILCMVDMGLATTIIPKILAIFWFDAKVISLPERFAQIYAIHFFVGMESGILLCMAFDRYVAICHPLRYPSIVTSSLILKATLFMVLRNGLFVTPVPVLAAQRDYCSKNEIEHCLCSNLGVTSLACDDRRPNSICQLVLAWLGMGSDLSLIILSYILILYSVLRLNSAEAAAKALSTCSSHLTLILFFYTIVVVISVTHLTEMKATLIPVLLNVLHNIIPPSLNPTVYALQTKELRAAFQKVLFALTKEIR
In short: as §1

O56B4 = tested on: T14, O56B4
T14 sequence (whole entry): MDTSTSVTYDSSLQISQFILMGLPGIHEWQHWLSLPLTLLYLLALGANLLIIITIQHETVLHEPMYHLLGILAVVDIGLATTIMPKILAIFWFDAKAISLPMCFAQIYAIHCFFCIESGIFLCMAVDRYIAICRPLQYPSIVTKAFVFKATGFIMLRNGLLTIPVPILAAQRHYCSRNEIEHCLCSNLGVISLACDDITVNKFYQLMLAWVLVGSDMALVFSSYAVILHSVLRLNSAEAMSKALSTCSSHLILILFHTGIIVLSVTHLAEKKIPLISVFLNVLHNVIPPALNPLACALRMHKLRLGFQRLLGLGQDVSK
In short: as §1

O5AC2 = tested on: T15, O5AC2
T15 sequence (whole entry): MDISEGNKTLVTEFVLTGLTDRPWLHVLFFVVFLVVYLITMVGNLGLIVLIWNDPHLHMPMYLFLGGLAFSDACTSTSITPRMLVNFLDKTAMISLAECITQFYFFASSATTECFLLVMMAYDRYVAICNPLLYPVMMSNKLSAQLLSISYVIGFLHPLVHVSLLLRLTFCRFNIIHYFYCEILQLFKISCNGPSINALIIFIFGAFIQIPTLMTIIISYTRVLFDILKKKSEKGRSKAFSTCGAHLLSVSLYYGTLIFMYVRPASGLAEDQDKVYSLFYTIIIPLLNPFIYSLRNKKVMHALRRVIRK
In short: as §1

O5AK2 = tested on: T16, O5AK2
T16 sequence (whole entry): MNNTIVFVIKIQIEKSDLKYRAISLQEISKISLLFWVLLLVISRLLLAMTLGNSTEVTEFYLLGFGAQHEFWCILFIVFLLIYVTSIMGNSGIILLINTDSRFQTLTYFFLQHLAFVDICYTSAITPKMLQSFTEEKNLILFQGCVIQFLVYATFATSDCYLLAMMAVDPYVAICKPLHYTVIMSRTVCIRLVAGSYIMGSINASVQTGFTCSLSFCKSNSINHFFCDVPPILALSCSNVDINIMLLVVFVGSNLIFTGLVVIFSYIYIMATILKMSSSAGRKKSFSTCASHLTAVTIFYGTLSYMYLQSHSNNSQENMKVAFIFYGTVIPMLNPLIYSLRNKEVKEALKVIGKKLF
In short: as §1

O5AK3 = tested on: T17, O5AK3
T17 sequence (whole entry): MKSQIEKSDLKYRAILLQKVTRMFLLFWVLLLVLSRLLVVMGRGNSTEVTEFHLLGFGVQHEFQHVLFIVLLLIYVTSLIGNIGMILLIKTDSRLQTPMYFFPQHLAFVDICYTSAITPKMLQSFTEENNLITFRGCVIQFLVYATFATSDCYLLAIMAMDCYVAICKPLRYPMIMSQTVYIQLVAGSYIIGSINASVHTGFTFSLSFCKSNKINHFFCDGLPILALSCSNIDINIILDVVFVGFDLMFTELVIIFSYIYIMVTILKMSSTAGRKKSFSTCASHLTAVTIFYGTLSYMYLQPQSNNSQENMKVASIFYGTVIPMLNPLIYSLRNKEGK
In short: as §1

Structure (SMILES)	odorant receptor agonist call (O52I2)	odorant receptor agonist call (O52J3)	odorant receptor agonist call (O52L1)	odorant receptor agonist call (O52L2)	odorant receptor agonist call (O52M1)	odorant receptor agonist call (O52N1)	odorant receptor agonist call (O52N2)	odorant receptor agonist call (O52N4)	odorant receptor agonist call (O52P1)	odorant receptor agonist call (O52R1)	odorant receptor agonist call (O52W1)	odorant receptor agonist call (O56A3)	odorant receptor agonist call (O56B1)	odorant receptor agonist call (O56B4)	odorant receptor agonist call (O5AC2)	odorant receptor agonist call (O5AK2)	odorant receptor agonist call (O5AK3)
CC1=CCC(C(C)(C)O)CC1 (stereo unspecified)	inactive	inactive	inactive	inactive	inactive	inactive	inactive	inactive	inactive	inactive	inactive	inactive	inactive	inactive	inactive	inactive	inactive
CC12C=CCC1C1CCC3CC(=O)CCC3(C)C1CC2 (stereo unspecified)	inactive	inactive	inactive	inactive	active	active	inactive	inactive	active	inactive	inactive	active	active	active	inactive	inactive	inactive
CC(C)C=O	inactive	inactive	inactive	inactive	inactive	inactive	inactive	inactive	inactive	inactive	inactive	active	inactive	inactive	inactive	inactive	inactive
